# Where a name gives a salt, the structure may show the parent alone. The list shows a part of the results. Most values come without repeats; read them as rough.
# Tested on: M229P (parental melanoma line)
# Experiment: reduction in cell viability relative to untreated/vehicle; higher = more growth inhibition
# Settings: 200 nM; 72 h
row,SMILES,reduction in cell viability [%]
1,CC(NCCc1ccc(O)cc1)C(O)c1ccc(O)cc1 (stereo unspecified) [Ritodrine hydrochloride],< 0
2,O=C1CSC(=O)N1C(CCc1ccncc1)COc1ccc(-c2cccc([N+](=O)[O-])c2)cc1 (stereo unspecified),< 0
3,CN(C)Cc1c(C(=O)NCCOc2ccc(C(=O)NO)cc2)oc2ccccc12 [Abexinostat],15.2
4,CCCCN1CCC(CNC(=O)c2c3n(c4ccccc24)CCCO3)CC1 [Piboserod hydrochloride],< 0
5,CN1C2CCCC1CC(NC(=O)c1nn(C)c3ccccc13)C2 (stereo unspecified) [Granisetron hydrochloride],< 0
6,O=C(c1ccc(F)cc1)C1CCN(CCn2c(=O)[nH]c3ccccc3c2=O)CC1 [Ketanserin],< 0
7,NCc1c[nH]c(=S)n1[C@H]1CCc2c(F)cc(F)cc2C1 [Nepicastat hydrochloride],< 0
8,OCCC#Cc1nc(-c2ccc(F)cc2)c(-c2ccncc2)n1CCCc1ccccc1,< 0
9,CC(C)n1nc(-c2ccc3oc(N)nc3c2)c2c(N)ncnc21,72.9
10,Nc1nnc(-c2cccc(Cl)c2Cl)c(N)n1 [Lamotrigine],< 0
11,Cn1cc(-c2cnn3c(N)c(Br)c([C@@H]4CCCNC4)nc23)cn1,2.26
12,CC(C)(C)c1nc(-c2cccc(NS(=O)(=O)c3c(F)cccc3F)c2F)c(-c2ccnc(N)n2)s1 [Dabrafenib],35.5
13,CCOc1ccn(-c2ccc(F)cc2)c(=O)c1C(=O)Nc1ccc(Oc2ccnc(N)c2Cl)c(F)c1,< 0
14,Cc1nc2cnc3ccc(C#Cc4cccnc4)cc3c2n1-c1ccc(C(C)(C)C#N)cc1,34.8
15,O=C(O)[C@@H](c1ccc(OCc2ccc3ccccc3n2)cc1)C1CCCC1 [Veliflapon],< 0
16,NC(=O)c1ncn([C@@H]2O[C@H](CO)[C@@H](O)[C@H]2O)c1O [Mizoribine],< 0
17,COc1cc2nccc(Oc3ccc(NC(=O)Nc4ccc(F)cc4F)c(F)c3)c2cc1OC,< 0
18,Cc1ccnc(NS(=O)(=O)c2ccc(NC(=O)Nc3ccc(S(=O)(=O)Nc4nccc(C)n4)cc3)cc2)n1,< 0
19,Cc1c(OCC(F)(F)F)ccnc1C[S+]([O-])c1nc2ccccc2[nH]1 (stereo unspecified) [Lansoprazole],< 0
20,C[C@H]1C[C@H]2[C@@H]3CCC4=CC(=O)C=C[C@]4(C)[C@H]3C(=O)C[C@]2(C)[C@@]1(O)C(=O)CO [Meprednisone],< 0
21,COc1ccc(-c2oc3cc(OC)ccc3c2C(=O)c2ccc(C#N)cc2)cc1,< 0
22,C[C@@H]1CCN(C(=O)CC#N)C[C@@H]1N(C)c1ncnc2[nH]ccc12 [Tofacitinib],< 0
23,c1coc(CNc2ncnc3[nH]cnc23)c1 [Kinetin],< 0
24,Nc1ncnc2c1ncn2[C@@H]1O[C@H](CO)C[C@H]1O [Cordycepin],< 0
25,CCN(CC)C(=S)SSC(=S)N(CC)CC [Disulfiram],73
26,COc1ccc2nc3cc(Cl)ccc3c(Nc3cc(CN4CCCC4)c(O)c(CN4CCCC4)c3)c2n1 [Pyronaridine],< 0

# Tested on: M229R (matched melanoma line resistant to BRAF inhibitors)
# Experiment: as above
# Settings: 200 nM; 72 h
row,SMILES,reduction in cell viability [%]
1,COc1cc(/C=C/C(=O)O)ccc1O [Fumalic acid],< 0
2,CS(=O)(=O)OCCCCOS(C)(=O)=O [Busulfan],< 0
3,NCCS(=O)(=O)O [l-Taurine],< 0
4,CCN(CC)CCCCNc1nc2cc(Cl)c(Cl)cc2nc1-c1ccc(-c2cccs2)s1,< 0
5,CCc1cccc(CC)c1NC(=O)N1Cc2[nH]nc(NC(=O)c3ccc(N4CCN(C)CC4)cc3)c2C1,< 0
6,N#CC1(c2ccc(NC(=O)c3cccnc3NCc3ccncc3)cc2)CCCC1 [Apatinib],< 0
7,O=C(CCCN1CCC(O)(c2ccc(Cl)cc2)CC1)c1ccc(F)cc1 [Haloperidol],< 0
8,Cc1ccc(NC(=O)c2ccc(CN3CCN(C)CC3)cc2)cc1Nc1nc(-c2cccnc2)cs1 [Masitinib],< 0
9,CCCN[C@H]1CCc2nc(N)sc2C1 [Pramipexole hydrochloride],< 0
10,CCCCCCCCCCCCCCCCCCCCCCO [Docosanol],< 0
11,C[C@@H]1CN(Cc2ccc(F)cc2)[C@@H](C)CN1C(=O)c1cc2c(C(=O)C(=O)N(C)C)cn(C)c2cc1Cl [Talmapimod],< 0
12,CO[C@@H]1[C@H](N(C)C(=O)c2ccccc2)C[C@H]2O[C@]1(C)n1c3ccccc3c3c4c(c5c6ccccc6n2c5c31)C(=O)NC4=O [Stauprimide],< 0
13,O=C(C[C@@H]1C/C=C/CCC(=O)O[C@H](c2ccccc2)CNC1=O)NCc1ccc(Cl)cc1 [Robotnikinin],< 0
14,CC(C)(Oc1ccc(C2CC2(Cl)Cl)cc1)C(=O)O (stereo unspecified) [Ciprofibrate],< 0
15,CC(NCCc1ccc(O)cc1)C(O)c1ccc(O)cc1 (stereo unspecified) [Ritodrine hydrochloride],< 0
16,O=C1CSC(=O)N1C(CCc1ccncc1)COc1ccc(-c2cccc([N+](=O)[O-])c2)cc1 (stereo unspecified),2.42
17,CN(C)Cc1c(C(=O)NCCOc2ccc(C(=O)NO)cc2)oc2ccccc12 [Abexinostat],16.1
18,CCCCN1CCC(CNC(=O)c2c3n(c4ccccc24)CCCO3)CC1 [Piboserod hydrochloride],< 0
19,CN1C2CCCC1CC(NC(=O)c1nn(C)c3ccccc13)C2 (stereo unspecified) [Granisetron hydrochloride],< 0
20,O=C(c1ccc(F)cc1)C1CCN(CCn2c(=O)[nH]c3ccccc3c2=O)CC1 [Ketanserin],< 0

row,SMILES,reduction in cell viability [%]
1,NCc1c[nH]c(=S)n1[C@H]1CCc2c(F)cc(F)cc2C1 [Nepicastat hydrochloride],3.73
2,OCCC#Cc1nc(-c2ccc(F)cc2)c(-c2ccncc2)n1CCCc1ccccc1,< 0
3,CC(C)n1nc(-c2ccc3oc(N)nc3c2)c2c(N)ncnc21,64.7
4,Nc1nnc(-c2cccc(Cl)c2Cl)c(N)n1 [Lamotrigine],< 0
5,Cn1cc(-c2cnn3c(N)c(Br)c([C@@H]4CCCNC4)nc23)cn1,44.3
6,CC(C)(C)c1nc(-c2cccc(NS(=O)(=O)c3c(F)cccc3F)c2F)c(-c2ccnc(N)n2)s1 [Dabrafenib],< 0
7,CCOc1ccn(-c2ccc(F)cc2)c(=O)c1C(=O)Nc1ccc(Oc2ccnc(N)c2Cl)c(F)c1,< 0
8,Cc1nc2cnc3ccc(C#Cc4cccnc4)cc3c2n1-c1ccc(C(C)(C)C#N)cc1,43.7
9,O=C(O)[C@@H](c1ccc(OCc2ccc3ccccc3n2)cc1)C1CCCC1 [Veliflapon],< 0
10,NC(=O)c1ncn([C@@H]2O[C@H](CO)[C@@H](O)[C@H]2O)c1O [Mizoribine],< 0
11,COc1cc2nccc(Oc3ccc(NC(=O)Nc4ccc(F)cc4F)c(F)c3)c2cc1OC,< 0
12,Cc1ccnc(NS(=O)(=O)c2ccc(NC(=O)Nc3ccc(S(=O)(=O)Nc4nccc(C)n4)cc3)cc2)n1,< 0
13,Cc1c(OCC(F)(F)F)ccnc1C[S+]([O-])c1nc2ccccc2[nH]1 (stereo unspecified) [Lansoprazole],< 0
14,C[C@H]1C[C@H]2[C@@H]3CCC4=CC(=O)C=C[C@]4(C)[C@H]3C(=O)C[C@]2(C)[C@@]1(O)C(=O)CO [Meprednisone],< 0
15,COc1ccc(-c2oc3cc(OC)ccc3c2C(=O)c2ccc(C#N)cc2)cc1,< 0
16,C[C@@H]1CCN(C(=O)CC#N)C[C@@H]1N(C)c1ncnc2[nH]ccc12 [Tofacitinib],< 0
17,c1coc(CNc2ncnc3[nH]cnc23)c1 [Kinetin],< 0
18,Nc1ncnc2c1ncn2[C@@H]1O[C@H](CO)C[C@H]1O [Cordycepin],< 0
19,CCN(CC)C(=S)SSC(=S)N(CC)CC [Disulfiram],52.5
20,COc1ccc2nc3cc(Cl)ccc3c(Nc3cc(CN4CCCC4)c(O)c(CN4CCCC4)c3)c2n1 [Pyronaridine],< 0
